Source: the supplement of paper PMC10032668
This is one part of the list. The list holds hits alone, and they repeat only in part.

Sequences of proteins named here, by UniProt entry; tags and fusion partners are left off.
ACTN4, O43707, UniProt O43707, whole entry: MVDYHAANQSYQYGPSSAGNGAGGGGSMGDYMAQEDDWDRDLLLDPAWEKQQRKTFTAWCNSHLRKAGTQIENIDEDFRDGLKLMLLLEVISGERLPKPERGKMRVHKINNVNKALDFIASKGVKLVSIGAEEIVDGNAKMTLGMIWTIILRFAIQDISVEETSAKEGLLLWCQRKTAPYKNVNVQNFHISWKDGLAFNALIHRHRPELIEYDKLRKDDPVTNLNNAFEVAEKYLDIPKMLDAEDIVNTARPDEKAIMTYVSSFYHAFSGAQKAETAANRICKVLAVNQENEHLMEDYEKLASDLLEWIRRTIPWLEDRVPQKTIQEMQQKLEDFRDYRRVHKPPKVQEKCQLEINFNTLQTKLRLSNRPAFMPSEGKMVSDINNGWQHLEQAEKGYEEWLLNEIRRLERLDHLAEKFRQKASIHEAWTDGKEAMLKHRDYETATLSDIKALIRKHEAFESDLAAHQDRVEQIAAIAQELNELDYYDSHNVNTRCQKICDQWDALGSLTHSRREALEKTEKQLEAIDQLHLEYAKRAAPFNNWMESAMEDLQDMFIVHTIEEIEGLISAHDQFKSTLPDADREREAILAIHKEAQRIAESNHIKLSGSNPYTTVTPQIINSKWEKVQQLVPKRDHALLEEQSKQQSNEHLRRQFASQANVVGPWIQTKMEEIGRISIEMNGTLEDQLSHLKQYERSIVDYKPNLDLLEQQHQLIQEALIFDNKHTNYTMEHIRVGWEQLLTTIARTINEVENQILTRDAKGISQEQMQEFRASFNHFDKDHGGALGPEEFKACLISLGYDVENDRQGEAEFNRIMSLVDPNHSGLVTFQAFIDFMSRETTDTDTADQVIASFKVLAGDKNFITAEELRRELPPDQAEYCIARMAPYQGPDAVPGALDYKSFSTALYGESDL
SP1, P08047, UniProt P08047, whole entry: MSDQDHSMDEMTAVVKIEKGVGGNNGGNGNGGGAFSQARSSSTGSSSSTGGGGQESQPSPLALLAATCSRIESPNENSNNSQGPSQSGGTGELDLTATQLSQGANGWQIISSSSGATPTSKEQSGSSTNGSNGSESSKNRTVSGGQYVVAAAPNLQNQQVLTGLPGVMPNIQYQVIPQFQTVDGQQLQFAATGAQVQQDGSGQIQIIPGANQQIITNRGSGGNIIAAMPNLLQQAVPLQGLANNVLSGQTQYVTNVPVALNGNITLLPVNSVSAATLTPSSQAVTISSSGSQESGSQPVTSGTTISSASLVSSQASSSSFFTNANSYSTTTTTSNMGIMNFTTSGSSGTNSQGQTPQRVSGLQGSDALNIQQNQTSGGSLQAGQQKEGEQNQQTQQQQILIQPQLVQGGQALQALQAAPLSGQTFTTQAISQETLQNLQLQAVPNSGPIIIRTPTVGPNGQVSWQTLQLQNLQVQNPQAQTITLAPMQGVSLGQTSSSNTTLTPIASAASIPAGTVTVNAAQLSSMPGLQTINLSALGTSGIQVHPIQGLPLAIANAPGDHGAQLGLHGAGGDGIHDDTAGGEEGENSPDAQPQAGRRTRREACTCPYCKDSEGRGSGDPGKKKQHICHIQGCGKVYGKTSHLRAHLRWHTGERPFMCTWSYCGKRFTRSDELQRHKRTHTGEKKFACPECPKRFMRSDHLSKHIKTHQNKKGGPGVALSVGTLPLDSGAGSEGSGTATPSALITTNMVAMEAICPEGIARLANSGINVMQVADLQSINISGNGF
ACTR1A, P61163, UniProt P61163, whole entry: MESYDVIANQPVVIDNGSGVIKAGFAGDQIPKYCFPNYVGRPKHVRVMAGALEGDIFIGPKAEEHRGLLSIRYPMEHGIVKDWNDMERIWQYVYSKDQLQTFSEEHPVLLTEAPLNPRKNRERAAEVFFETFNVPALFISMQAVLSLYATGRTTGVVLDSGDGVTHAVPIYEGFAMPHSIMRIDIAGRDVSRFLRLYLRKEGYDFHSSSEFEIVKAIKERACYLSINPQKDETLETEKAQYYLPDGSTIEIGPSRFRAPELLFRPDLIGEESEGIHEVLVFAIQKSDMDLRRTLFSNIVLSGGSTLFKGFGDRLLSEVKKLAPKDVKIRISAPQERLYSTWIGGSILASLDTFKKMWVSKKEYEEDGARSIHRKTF
GTF2F1, P35269, UniProt P35269, whole entry: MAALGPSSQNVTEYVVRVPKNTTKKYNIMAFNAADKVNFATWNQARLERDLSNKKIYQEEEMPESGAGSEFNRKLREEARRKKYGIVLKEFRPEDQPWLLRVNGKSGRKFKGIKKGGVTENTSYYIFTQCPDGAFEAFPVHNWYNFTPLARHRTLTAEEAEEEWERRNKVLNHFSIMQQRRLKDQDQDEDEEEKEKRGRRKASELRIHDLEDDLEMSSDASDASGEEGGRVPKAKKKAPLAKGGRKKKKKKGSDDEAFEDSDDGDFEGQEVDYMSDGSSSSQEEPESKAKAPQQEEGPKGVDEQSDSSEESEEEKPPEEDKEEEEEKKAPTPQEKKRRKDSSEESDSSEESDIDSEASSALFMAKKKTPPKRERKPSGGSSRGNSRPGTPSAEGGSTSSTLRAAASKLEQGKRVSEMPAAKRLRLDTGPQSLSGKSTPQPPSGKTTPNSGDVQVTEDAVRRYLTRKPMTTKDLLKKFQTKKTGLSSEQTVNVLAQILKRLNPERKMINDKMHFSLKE
PDLIM7, Q9NR12, UniProt Q9NR12, whole entry: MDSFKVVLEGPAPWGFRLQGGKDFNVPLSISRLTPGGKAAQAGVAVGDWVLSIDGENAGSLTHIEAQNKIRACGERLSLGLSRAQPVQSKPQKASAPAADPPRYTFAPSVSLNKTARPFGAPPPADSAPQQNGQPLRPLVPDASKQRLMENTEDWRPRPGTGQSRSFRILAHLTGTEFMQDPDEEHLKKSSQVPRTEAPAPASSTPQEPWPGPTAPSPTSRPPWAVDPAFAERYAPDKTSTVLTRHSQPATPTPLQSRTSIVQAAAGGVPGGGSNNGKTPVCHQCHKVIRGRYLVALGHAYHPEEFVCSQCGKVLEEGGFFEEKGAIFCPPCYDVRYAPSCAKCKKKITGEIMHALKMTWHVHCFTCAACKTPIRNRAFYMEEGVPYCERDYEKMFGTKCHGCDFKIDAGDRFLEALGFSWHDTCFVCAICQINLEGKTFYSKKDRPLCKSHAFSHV
RAB7A, P51149, UniProt P51149, whole entry: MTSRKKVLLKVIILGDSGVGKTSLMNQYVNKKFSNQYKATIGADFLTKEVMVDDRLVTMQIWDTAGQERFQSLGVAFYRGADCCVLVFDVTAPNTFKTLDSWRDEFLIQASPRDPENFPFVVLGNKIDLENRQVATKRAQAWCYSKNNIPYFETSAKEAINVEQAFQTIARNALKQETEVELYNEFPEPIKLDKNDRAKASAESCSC
TUBA1C, Q9BQE3, UniProt Q9BQE3, whole entry: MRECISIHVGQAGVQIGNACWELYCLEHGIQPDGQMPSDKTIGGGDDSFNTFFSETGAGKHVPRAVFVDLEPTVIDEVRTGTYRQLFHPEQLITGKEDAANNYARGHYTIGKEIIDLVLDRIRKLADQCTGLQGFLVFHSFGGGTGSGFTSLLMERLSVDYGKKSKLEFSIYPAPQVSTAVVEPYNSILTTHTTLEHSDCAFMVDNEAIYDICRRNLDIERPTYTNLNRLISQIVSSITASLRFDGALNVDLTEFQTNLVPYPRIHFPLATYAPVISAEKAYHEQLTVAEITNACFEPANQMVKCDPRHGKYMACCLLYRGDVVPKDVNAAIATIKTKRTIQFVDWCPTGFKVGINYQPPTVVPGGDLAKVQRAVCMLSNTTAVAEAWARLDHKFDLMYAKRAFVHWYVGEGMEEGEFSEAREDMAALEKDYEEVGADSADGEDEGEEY
ACTL6A, O96019, UniProt O96019, whole entry: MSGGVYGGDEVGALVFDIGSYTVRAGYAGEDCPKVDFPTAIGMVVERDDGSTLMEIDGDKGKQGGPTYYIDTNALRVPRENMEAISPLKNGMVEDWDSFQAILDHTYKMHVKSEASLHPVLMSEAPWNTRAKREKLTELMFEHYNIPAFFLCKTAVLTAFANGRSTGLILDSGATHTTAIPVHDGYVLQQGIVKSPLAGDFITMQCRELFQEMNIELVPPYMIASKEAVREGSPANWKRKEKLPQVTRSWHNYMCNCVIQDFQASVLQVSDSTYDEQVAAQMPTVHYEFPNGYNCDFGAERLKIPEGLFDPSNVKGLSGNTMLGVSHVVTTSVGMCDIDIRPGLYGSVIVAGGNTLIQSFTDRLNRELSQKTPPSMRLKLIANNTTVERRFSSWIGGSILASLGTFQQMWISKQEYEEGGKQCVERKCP
DCTN5, Q9BTE1, UniProt Q9BTE1, whole entry: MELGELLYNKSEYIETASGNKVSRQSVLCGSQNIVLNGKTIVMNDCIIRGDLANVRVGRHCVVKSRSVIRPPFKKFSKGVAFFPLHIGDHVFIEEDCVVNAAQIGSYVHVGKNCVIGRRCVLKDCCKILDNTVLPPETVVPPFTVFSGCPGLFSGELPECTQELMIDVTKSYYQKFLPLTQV
RUVBL2, Q9Y230, UniProt Q9Y230, whole entry: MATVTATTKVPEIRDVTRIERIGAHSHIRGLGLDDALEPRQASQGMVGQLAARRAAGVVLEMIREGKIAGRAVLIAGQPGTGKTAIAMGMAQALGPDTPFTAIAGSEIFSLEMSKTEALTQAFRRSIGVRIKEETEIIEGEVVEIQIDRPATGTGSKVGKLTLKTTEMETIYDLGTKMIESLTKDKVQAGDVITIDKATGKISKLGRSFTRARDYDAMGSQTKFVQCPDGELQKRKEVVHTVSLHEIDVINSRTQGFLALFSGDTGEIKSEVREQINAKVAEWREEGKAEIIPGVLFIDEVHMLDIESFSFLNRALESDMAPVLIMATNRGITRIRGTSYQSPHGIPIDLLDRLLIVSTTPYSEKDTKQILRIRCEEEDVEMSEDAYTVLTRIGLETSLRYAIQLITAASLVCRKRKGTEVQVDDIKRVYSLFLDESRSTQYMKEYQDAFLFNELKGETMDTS

Legend:
Experiment in all cases: PRISMA enrichment of interactor (LFQ) in peptide spot vs all other peptide spots (log2 fold change); higher = stronger / more specific binding of the interactor to the peptide
ACTN4, O43707 = target: ACTN4, O43707
Description: (§1)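 PRISMA: 15-aa overlapping tiles (offset 8 aa) of 60 microproteins, plus SOS1/GLUT1 control peptides, were spot-synthesized on cellulose membranes in triplicate. Membranes were incubated with benzonase-treated HEK293T lysate, and bound proteins were identified by LC-MS/MS with LFQ. Enrichment is the log2 fold change of each protein in one spot versus all other spots. Only interactors passing the significance cutoff are listed.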

CC2D1A, Q6P1N0 = target: CC2D1A, Q6P1N0
Description: as §1

HEATR3, Q7Z4Q2 = target: HEATR3, Q7Z4Q2
Description: as §1

L2HGDH, Q9H9P8 = target: L2HGDH, Q9H9P8
Description: as §1

MRPL44, Q9H9J2 = target: MRPL44, Q9H9J2
Description: as §1

NEPRO, Q6NW34 = target: NEPRO, Q6NW34
Description: as §1

NUP58, Q9BVL2 = target: NUP58, Q9BVL2
Description: as §1

PRRC2B, Q5JSZ5 = target: PRRC2B, Q5JSZ5
Description: as §1

QRICH1, Q2TAL8 = target: QRICH1, Q2TAL8
Description: as §1

SP1, P08047 = target: SP1, P08047
Description: as §1

ACTR1A, P61163 = target: ACTR1A, P61163
Description: as §1

DHX15, O43143 = target: DHX15, O43143
Description: as §1

EWSR1, Q01844 = target: EWSR1, Q01844
Description: as §1

FAM98A, Q8NCA5 = target: FAM98A, Q8NCA5
Description: as §1

GIGYF2, Q6Y7W6 = target: GIGYF2, Q6Y7W6
Description: as §1

GOLPH3L, Q9H4A5 = target: GOLPH3L, Q9H4A5
Description: as §1

GTF2F1, P35269 = target: GTF2F1, P35269
Description: as §1

HSPA4, P34932 = target: HSPA4, P34932
Description: as §1

MACF1 = target: MACF1
Description: as §1

MEPCE, Q7L2J0 = target: MEPCE, Q7L2J0
Description: as §1

MKI67, P46013 = target: MKI67, P46013
Description: as §1

MLEC, Q14165 = target: MLEC, Q14165
Description: as §1

MRPL49, Q13405 = target: MRPL49, Q13405
Description: as §1

NIFK, Q9BYG3 = target: NIFK, Q9BYG3
Description: as §1

NUFIP2, Q7Z417 = target: NUFIP2, Q7Z417
Description: as §1

PDLIM7, Q9NR12 = target: PDLIM7, Q9NR12
Description: as §1

PFKM, P08237 = target: PFKM, P08237
Description: as §1

PSME3, P61289 = target: PSME3, P61289
Description: as §1

RAB7A, P51149 = target: RAB7A, P51149
Description: as §1

SEC61G, P60059 = target: SEC61G, P60059
Description: as §1

SEC63, Q9UGP8 = target: SEC63, Q9UGP8
Description: as §1

SNX5, Q9Y5X3 = target: SNX5, Q9Y5X3
Description: as §1

SSR3, Q9UNL2 = target: SSR3, Q9UNL2
Description: as §1

TUBA1C, Q9BQE3 = target: TUBA1C, Q9BQE3
Description: as §1

WDR12, Q9GZL7 = target: WDR12, Q9GZL7
Description: as §1

ACTL6A, O96019 = target: ACTL6A, O96019
Description: as §1

ARL6IP5, O75915 = target: ARL6IP5, O75915
Description: as §1

DCTN5, Q9BTE1 = target: DCTN5, Q9BTE1
Description: as §1

FANCI, Q9NVI1 = target: FANCI, Q9NVI1
Description: as §1

FBXO3, Q9UK99 = target: FBXO3, Q9UK99
Description: as §1

GLYR1, Q49A26 = target: GLYR1, Q49A26
Description: as §1

LETM1, O95202 = target: LETM1, O95202
Description: as §1

MCRIP1, C9JLW8 = target: MCRIP1, C9JLW8
Description: as §1

RAB8A, P61006 = target: RAB8A, P61006
Description: as §1

RER1, O15258 = target: RER1, O15258
Description: as §1

RPRD1A, Q96P16 = target: RPRD1A, Q96P16
Description: as §1

RUVBL2, Q9Y230 = target: RUVBL2, Q9Y230
Description: as §1

SAFB2, Q14151 = target: SAFB2, Q14151
Description: as §1

SAP18, O00422 = target: SAP18, O00422
Description: as §1

SNRPF, P62306 = target: SNRPF, P62306
Description: as §1

ZCCHC17, Q9NP64 = target: ZCCHC17, Q9NP64
Description: as §1

B1: MKKS (peptide)
chain: RDYKVLVVMVPLVGL
PRISMA enrichment of interactor (log2) (ACTN4, O43707): 4.77 | PRISMA enrichment of interactor (log2) (CC2D1A, Q6P1N0): 5.58 | PRISMA enrichment of interactor (log2) (HEATR3, Q7Z4Q2): 4.67 | PRISMA enrichment of interactor (log2) (L2HGDH, Q9H9P8): 4.1 | PRISMA enrichment of interactor (log2) (MRPL44, Q9H9J2): 5.88 | PRISMA enrichment of interactor (log2) (NEPRO, Q6NW34): 5.72 | PRISMA enrichment of interactor (log2) (NUP58, Q9BVL2): 4.31 | PRISMA enrichment of interactor (log2) (PRRC2B, Q5JSZ5): 4.62 | PRISMA enrichment of interactor (log2) (QRICH1, Q2TAL8): 5.13 | PRISMA enrichment of interactor (log2) (SP1, P08047): 3.94

B2: LINC00881 (peptide)
chain: MASVNLSFSFSRPSH
PRISMA enrichment of interactor (log2) (ACTR1A, P61163): 6.46 | PRISMA enrichment of interactor (log2) (DHX15, O43143): 4.92 | PRISMA enrichment of interactor (log2) (EWSR1, Q01844): 6.06 | PRISMA enrichment of interactor (log2) (FAM98A, Q8NCA5): 8.33 | PRISMA enrichment of interactor (log2) (GIGYF2, Q6Y7W6): 4.56 | PRISMA enrichment of interactor (log2) (GOLPH3L, Q9H4A5): 7.27 | PRISMA enrichment of interactor (log2) (GTF2F1, P35269): 4.53 | PRISMA enrichment of interactor (log2) (HSPA4, P34932): 4.95 | PRISMA enrichment of interactor (log2) (MACF1): 6.18 | PRISMA enrichment of interactor (log2) (MEPCE, Q7L2J0): 5.65 | PRISMA enrichment of interactor (log2) (MKI67, P46013): 6.01 | PRISMA enrichment of interactor (log2) (MLEC, Q14165): 5.03 | PRISMA enrichment of interactor (log2) (MRPL49, Q13405): 4.37 | PRISMA enrichment of interactor (log2) (NIFK, Q9BYG3): 5.01 | PRISMA enrichment of interactor (log2) (NUFIP2, Q7Z417): 7.55 | PRISMA enrichment of interactor (log2) (PDLIM7, Q9NR12): 6.34 | PRISMA enrichment of interactor (log2) (PFKM, P08237): 4.9 | PRISMA enrichment of interactor (log2) (PSME3, P61289): 4.91 | PRISMA enrichment of interactor (log2) (RAB7A, P51149): 6.99 | PRISMA enrichment of interactor (log2) (SEC61G, P60059): 8.09 | PRISMA enrichment of interactor (log2) (SEC63, Q9UGP8): 5.71 | PRISMA enrichment of interactor (log2) (SNX5, Q9Y5X3): 4.29 | PRISMA enrichment of interactor (log2) (SSR3, Q9UNL2): 5.42 | PRISMA enrichment of interactor (log2) (TUBA1C, Q9BQE3): 8.56 | PRISMA enrichment of interactor (log2) (WDR12, Q9GZL7): 4.63

B3: SLCO5A1 (peptide)
chain: EAVSVIRMHWAPRSW
PRISMA enrichment of interactor (log2) (ACTL6A, O96019): 6.04 | PRISMA enrichment of interactor (log2) (ARL6IP5, O75915): 4.51 | PRISMA enrichment of interactor (log2) (DCTN5, Q9BTE1): 4.8 | PRISMA enrichment of interactor (log2) (FANCI, Q9NVI1): 5.41 | PRISMA enrichment of interactor (log2) (FBXO3, Q9UK99): 5.86 | PRISMA enrichment of interactor (log2) (GLYR1, Q49A26): 4.9 | PRISMA enrichment of interactor (log2) (LETM1, O95202): 6.36 | PRISMA enrichment of interactor (log2) (MCRIP1, C9JLW8): 4.73 | PRISMA enrichment of interactor (log2) (RAB8A, P61006): 8.82 | PRISMA enrichment of interactor (log2) (RER1, O15258): 4.64 | PRISMA enrichment of interactor (log2) (RPRD1A, Q96P16): 7.14 | PRISMA enrichment of interactor (log2) (RUVBL2, Q9Y230): 7.06 | PRISMA enrichment of interactor (log2) (SAFB2, Q14151): 5.23 | PRISMA enrichment of interactor (log2) (SAP18, O00422): 4.81 | PRISMA enrichment of interactor (log2) (SNRPF, P62306): 6.6 | PRISMA enrichment of interactor (log2) (ZCCHC17, Q9NP64): 6.66
